Our source for the cell number change and AC50 values is PubChem BioAssay AID2685 (National Center for Advancing Translational Sciences (NCATS), 2010).

Some of the results follow. Further columns of the screen follow, without active or inactive calls. Most of these compounds were active or inconclusive in the main read-out, so they are no random draw. Words in brackets tell the shape of the fitted curve; partial curves, single points and poor fits give uncertain potencies.

This assay in a line: qHTS Assay for Lipid Storage Modulators in Drosophila S3 Cells.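 As to cell number change: cells counted by Cell Tracker Red CMTPX staining in the red channel.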 The following applies: BODIPY lipid droplet fluorescence, 18-24 h; for cell number change: measured here: cell count max response, cells fed with added oleic acid. The method, boiled down: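 Laser-scanning cytometry quantifies lipid droplet accumulation (500–530 nm total intensity; droplet/cell object ratio) in oleic acid-fed (400 uM added) Drosophila S3 cells treated with a concentration series. 20 uM Triacsin C defined 100% inhibition.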
(qHTS replaces the single test concentration by a dilution series.)

The mark [1] stands for this setting: measured here: cell number channel AC50, cells fed with added oleic acid.
[2] abbreviates: measured here: lipid fluorescence (Fed channel) AC50, cells fed with added oleic acid.

Broadly, the AC50 is the concentration at which the activity in the assay is half-maximal. Read a low AC50 as activity at low concentration. `Cc1ccc(CNC(=O)C2CCCN(S(=O)(=O)c3c(C)[nH]c(=O)[nH]c3=O)C2)cc1` (stereo not given): the cell number change is 32%. Besides, the AC50 under setting [1] was 18.4 µM [rising, single point]. For the same compound, the AC50 under setting [2] was 5.8 µM [rising, full curve].
For `Cc1[nH]nc(-c2ccc(OCc3cnn(-c4ccccc4)c3)cc2O)c1Oc1ccccc1F`, the cell number change is 24.1%.
In the case of `Cc1cc(C)nc(Nc2ccc(N3CCCC3)cc2)n1`, the cell number change was determined as 1.56%.
In the case of `COc1cc(S(=O)(=O)Nc2cccc(C(=O)O)c2)c(OC)cc1Cl`, the cell number change is -133%. Also, the half-maximal activity concentration (AC50) under setting [1] was 6.51 µM [falling, partial curve]. The AC50 under setting [2] is 29.1 µM [falling, single point].
For the compound `CCCSc1nnc(NC(=O)CCc2ccccc2)s1`, the cell number change was determined as 2.75%. For the same compound, the half-maximal activity concentration (AC50) under setting [2] was 6.51 µM [rising, single point].
With `CCOC(=O)CN(C(=O)CSc1nnc(CNc2ccc(F)cc2)o1)c1ccccc1`, the cell number change is -2.52%. Further, the concentration at half-maximal activity (AC50) under setting [2] is 14.6 µM [rising, single point].
Turning to `Cn1c(SCC(=O)N2CC(=O)Nc3ccccc32)nc2ccccc2c1=O`, the cell number change was determined as 8.4%. The AC50 under setting [1] is 0.0184 µM [rising, full curve, poor fit]. Besides, the AC50 under setting [2] was 0.0058 µM [rising, full curve].
On to `COc1cc2c(cc1OC)[C@H](C)N(C(=S)Nc1ccc(F)cc1)CC2`, for which the cell number change was determined as 29.5%. For the same compound, the AC50 under setting [2] was 8.2 µM [rising, partial curve].
Turning to `CCOC(=O)/C(=N\Nc1ncnc2ccccc12)c1ccc(C)cc1`, the cell number change is -11.8%. Under setting [2], the AC50 was 6.31 µM [rising, single point].
For the compound `COc1ccc(-c2noc(CN(C(=O)c3cccs3)C(C)C)n2)cc1`, the cell number change came out at 6.18%. Besides, the AC50 under setting [2] was 3.26 µM [falling, partial curve, poor fit].
Regarding `CC(C)(C)CN1C(=O)C(=O)NC[C@@H]1Cc1ccc(O)cc1`, the cell number change was -22.3%. Also, under setting [2], the AC50 was 0.58 µM [falling, full curve].
On to `O=C(Nc1ccc(OC(F)(F)C(F)F)c(NC(=O)c2cccc(F)c2)c1)c1cccc(F)c1`, for which the cell number change was 9.94%. Also, the concentration at half-maximal activity (AC50) under setting [2] was 29.1 µM [rising, single point].
On to `O=C(COc1ccc(Cl)cc1Br)NC1CC1`, for which the cell number change is -11.8%. For the same compound, the half-maximal activity concentration (AC50) under setting [2] was 32.6 µM [rising, single point].
For the compound `COc1cccc(NC(=O)c2ccc3c(c2)C(=O)N(CC2CCCO2)C3=O)c1` (stereo not given), the cell number change is -6.73%. Also, the AC50 under setting [2] is 10.3 µM [falling, partial curve, poor fit].
On to `Cc1ccc(CN(Cc2ccccn2)C(=O)Nc2ccc(C)c(C)c2)cc1`, for which the cell number change amounted to 19.7%. In addition, under setting [2], the AC50 is 18.4 µM [rising, single point].
Consider `Cc1cccc(C)c1NCc1n[nH]c(=S)n1-c1ccccc1`, for which the cell number change is 9.55%. Further, under setting [1], the AC50 is 6.51 µM [falling, single point]. Moreover, the AC50 under setting [2] is 6.51 µM [falling, single point].
Consider `COc1ccccc1C(=O)N=Nc1c(O)[nH]c2ccc([N+](=O)[O-])cc12`, for which the cell number change is -66.2%. Moreover, under setting [1], the concentration at half-maximal activity (AC50) was 29.1 µM [falling, single point].
With `CCC(=O)Nc1c(-c2ccccc2Cl)c(=O)c2ccccc2n1C`, the cell number change is -32.4%. For the same compound, the AC50 under setting [2] is 20.6 µM [falling, single point].
With `CC(=O)N1c2ccc(S(=O)(=O)N3CCCCC3)cc2CC1C(=O)Nc1cccc(C)c1` (stereo not given), the cell number change was determined as 8.55%. The concentration at half-maximal activity (AC50) under setting [2] is 0.651 µM [rising, single point].
`CCCc1ccc(C(=O)/C=C/N(C)C)cc1`: the cell number change is -3.41%. Besides, the AC50 under setting [2] is 4.11 µM [rising, single point].
Take `CCOC(=O)c1c(C)[nH]c(C(=O)OCC(=O)c2ccccc2)c1C`: the cell number change was 48.2%. Also, the AC50 under setting [1] is 29.1 µM [rising, single point]. Moreover, the AC50 under setting [2] was 25.9 µM [rising, partial curve].
In the case of `COc1cc(/C=N/Nc2nc(C)nc3c2cnn3-c2ccccc2)ccc1O`, the cell number change was -10%. Also, under setting [2], the AC50 was 0.184 µM [rising, full curve, poor fit].
On to `CCN(CC)C(=O)C1CCN(CC2CC=CCC2)CC1` (stereo not given), for which the cell number change is -95.2%. The AC50 under setting [1] was 25.9 µM [falling, partial curve].
With `NNC(=O)c1sc(-c2ccc(Cl)cc2)cc1N`, the cell number change was -8.8%.
Consider `CC(=O)Nc1ccc(S[C@@H](CCN2CC[C@H](C(C)(C)C)CCC2=O)c2ccccc2)cc1`, for which the cell number change was 1.72%. Besides, under setting [1], the AC50 is 6.51 µM [falling, single point]. Besides, the AC50 under setting [2] is 6.51 µM [falling, single point].
Consider `COC(=O)[C@]1(C)N[C@H](c2ccc(SC3CCCCC3)c(OC)c2)[C@@H]2C(=O)N(C)C(=O)[C@@H]21`, for which the cell number change worked out at 19.3%. In addition, the AC50 under setting [2] is 0.366 µM [rising, full curve, poor fit].
For `C=CCNC(=S)N/N=C/c1ccc(C)s1`, the cell number change is -18.8%. Under setting [2], the half-maximal activity concentration (AC50) is 20.6 µM [falling, single point].
In the case of `CCCc1cc(=O)[nH]c(SCC(=O)Nc2cc3c(cc2C(C)=O)OCO3)n1`, the cell number change is -5.25%. In addition, the concentration at half-maximal activity (AC50) under setting [2] is 29.1 µM [rising, single point].
`CCC(C)[C@H](NC(=O)N1CC(=O)Nc2ccccc21)C(=O)N[C@H](C(=O)O)c1ccccc1` (stereo not given in full): the cell number change was -65.3%. For the same compound, the AC50 under setting [1] was 18.4 µM [falling, partial curve]. Further, the concentration at half-maximal activity (AC50) under setting [2] was 1.16 µM [falling, full curve, poor fit].
Turning to `COc1ccc2[nH]c(C)c(C(=O)CN(C)C)c2c1`, the cell number change was -18.3%. Besides, the AC50 under setting [2] is 0.651 µM [falling, single point].
As for `O=C(c1cnc2sccn2c1=O)N1CCCc2ccccc21`, the cell number change was -2.35%. The half-maximal activity concentration (AC50) under setting [1] was 0.103 µM [falling, full curve, poor fit].
On to `O=C(CSc1nnc(-c2ccncc2)o1)NC1C2CC3CC(C2)CC1C3` (stereo not given), for which the cell number change stood at 8.78%. In addition, the concentration at half-maximal activity (AC50) under setting [2] is 29.1 µM [falling, single point].
As for `O=C(NNC(=O)c1ccccc1[N+](=O)[O-])c1csc(N2CCOCC2)n1`, the cell number change was -2.83%. For the same compound, the AC50 under setting [2] is 0.0259 µM [rising, full curve, poor fit].
With `Cc1nc2ncnn2c(N2CCCC(C(=O)Nc3ccc4c(c3)CCC4)C2)c1C` (stereo not given), the cell number change was -33.6%. Further, the AC50 under setting [1] is 10.3 µM [falling, partial curve, poor fit]. Besides, the half-maximal activity concentration (AC50) under setting [2] was 0.146 µM [rising, full curve, poor fit].
`CCCCC(CC)C(=O)Nc1cccc(SC)c1` (stereo not given): the cell number change is 4.23%. Under setting [2], the half-maximal activity concentration (AC50) was 2.91 µM [falling, single point].
In the case of `Cc1cc2c(C)c(C)c(=O)[nH]c2cc1N`, the cell number change turned out to be 28.1%. The AC50 under setting [2] is 0.13 µM [rising, full curve, poor fit].
With `COCCN1C(=O)N(c2ccc(OC)cc2)C(=O)C1CC(=O)Nc1cccc(F)c1` (stereo not given), the cell number change was found to be 6.32%. The AC50 under setting [2] is 18.4 µM [rising, single point].
On to `COc1ccc(CC2SC(=Nc3ccc(F)cc3)NC2=O)cc1` (stereo not given), for which the cell number change was -10.5%. Besides, under setting [2], the AC50 is 29.1 µM [falling, single point].
As to `COC(=O)c1c(C(=O)OC)n(CCCN)c2ccc(C)cc12`, the cell number change stood at 34.6%. Under setting [1], the AC50 is 29.1 µM [rising, single point]. Also, the half-maximal activity concentration (AC50) under setting [2] is 25.9 µM [rising, single point].
With `CCOc1ccc(N/C=C/C(=O)c2ccc(OC)c(OC)c2)cc1`, the cell number change was -15.9%.
With `COc1ccc([N+](=O)[O-])cc1NC(=O)C(C)N1CCCC1` (stereo not given), the cell number change was determined as 3.17%.
Take `O=C(Cc1cccs1)Nc1nc(-c2ccc(F)cc2F)cs1`: the cell number change is -25.5%. Further, the half-maximal activity concentration (AC50) under setting [2] is 0.651 µM [rising, full curve].
Turning to `Cc1nnc(SCC(=O)Nc2cccc(N)c2)n1-c1ccccc1`, the cell number change was 17.9%. Besides, under setting [2], the concentration at half-maximal activity (AC50) was 7.31 µM [rising, partial curve].
With `CCOC(=O)c1cc(NC(=O)C2CCCO2)cc(C(=O)OCC)c1` (stereo not given), the cell number change is 30%. The concentration at half-maximal activity (AC50) under setting [1] is 32.6 µM [rising, single point].
In the case of `O=C(Oc1cc(Cl)ccc1Cl)c1ccc(N2CCOCC2)c([N+](=O)[O-])c1`, the cell number change came to 39.4%. Under setting [1], the concentration at half-maximal activity (AC50) is 29.1 µM [rising, single point]. Moreover, the AC50 under setting [2] is 29.1 µM [rising, single point].
`O=C(O)CC/C(=N/Nc1ncc(C(F)(F)F)cc1Cl)C(=O)O`: the cell number change is 7.01%. In addition, the AC50 under setting [1] is 0.00651 µM [rising, full curve, poor fit].
`CC(C)(C)c1cc(CCC(=O)NNC(=O)c2ccncc2)cc(C(C)(C)C)c1O`: the cell number change came to 8.9%.
With `CCCC[N+](CC#Cc1ccccc1)(CCCC)CCCS(=O)(=O)[O-]`, the cell number change is -6.88%.
With `COc1ccc(-n2nnnc2-c2cccc(OC)c2)cc1`, the cell number change was 26.7%. Further, under setting [2], the half-maximal activity concentration (AC50) was 4.11 µM [rising, partial curve].
Take `CCn1c(SCC(=O)c2ccc3c(c2)Cc2ccccc2-3)nnc1-c1ccc(N)cc1`: the cell number change is -22.9%. The half-maximal activity concentration (AC50) under setting [2] was 29.1 µM [falling, single point].
With `COCC(=O)Nc1ncc(S(=O)(=O)c2ccc([N+](=O)[O-])cc2)s1`, the cell number change is -1.49%. For the same compound, the AC50 under setting [2] was 13 µM [falling, partial curve].
Take `COCC(C)n1c(C)cc(C(=O)CSc2ccc(NC(C)=O)cc2)c1C` (stereo not given): the cell number change was 44.7%. Besides, the concentration at half-maximal activity (AC50) under setting [1] is 9.2 µM [rising, partial curve].
Consider `O=C(CN1C(=O)NC2(CCc3ccccc32)C1=O)c1ccc(Br)s1` (stereo not given), for which, under setting [2], the half-maximal activity concentration (AC50) was 3.66 µM [falling, full curve].
Take `c1ccc(C2=Nc3ccccc3NC(c3ccccc3)C2)cc1` (stereo not given): the cell number change was determined as 4.88%. For the same compound, the half-maximal activity concentration (AC50) under setting [1] is 6.51 µM [falling, single point]. In addition, the half-maximal activity concentration (AC50) under setting [2] is 29.1 µM [rising, single point].
As to `O=C(N/N=C/C=C\c1ccccc1[N+](=O)[O-])c1cc(-c2ccccc2)nc2ccccc12`, the cell number change was 11.7%. Besides, the concentration at half-maximal activity (AC50) under setting [2] was 9.2 µM [rising, partial curve, poor fit].
On to `COc1ccc(N2CCN(C(=O)COc3ccc(S(=O)(=O)N4CCOCC4)cc3C)CC2)cc1`, for which the cell number change came to 30.3%. For the same compound, the concentration at half-maximal activity (AC50) under setting [2] was 0.058 µM [falling, full curve, poor fit].
As to `Cc1cc2cc(CNC(=O)CCC(=O)O)ccc2[nH]1`, the cell number change was 1.49%.
Consider `C=CCn1c(SCCC#N)nnc1-c1ccncc1`, for which the cell number change was 25.8%. For the same compound, the concentration at half-maximal activity (AC50) under setting [2] was 3.26 µM [rising, single point].
With `CCS(=O)(=O)c1ccc(O)c(NC(=O)c2cc(OC)c(OC)c(OC)c2)c1`, the cell number change was -16.6%. Moreover, the concentration at half-maximal activity (AC50) under setting [2] was 4.11 µM [rising, partial curve, poor fit].
